Compound in this test: Nc1ncnc2c1ncn2[C@@H]1O[C@H](COP(=O)(O)OP(=O)(O)OP(=O)(O)O)[C@@H](O)[C@H]1O [adenosine triphosphate]
Briefly: NP40-soluble protein abundance relative to vehicle (solubility fold change) (ratio); higher = more soluble protein in presence of ATP. The gist of the method: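 Jurkat crude lysate (Dounce-homogenised) was treated with eight concentrations from 0.1 to 10 mM for 10 min at room temperature, then 3 min at 37 °C. It was solubilised with 0.8% NP40 and benzonase (60 min, 4 °C) and ultracentrifuged, and the supernatant was TMT-labelled for LC-MS/MS. Intensities were vsn-normalised, and the value is the fold change against the NP40-processed vehicle per replicate, from three independent experiments.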

Protein sequences, listed by entry. Tags and fused reporters are not part of them. Lines headed by an entry give the natural chain unless they say otherwise; changes in a name come on top.
UniProt O00459, whole entry: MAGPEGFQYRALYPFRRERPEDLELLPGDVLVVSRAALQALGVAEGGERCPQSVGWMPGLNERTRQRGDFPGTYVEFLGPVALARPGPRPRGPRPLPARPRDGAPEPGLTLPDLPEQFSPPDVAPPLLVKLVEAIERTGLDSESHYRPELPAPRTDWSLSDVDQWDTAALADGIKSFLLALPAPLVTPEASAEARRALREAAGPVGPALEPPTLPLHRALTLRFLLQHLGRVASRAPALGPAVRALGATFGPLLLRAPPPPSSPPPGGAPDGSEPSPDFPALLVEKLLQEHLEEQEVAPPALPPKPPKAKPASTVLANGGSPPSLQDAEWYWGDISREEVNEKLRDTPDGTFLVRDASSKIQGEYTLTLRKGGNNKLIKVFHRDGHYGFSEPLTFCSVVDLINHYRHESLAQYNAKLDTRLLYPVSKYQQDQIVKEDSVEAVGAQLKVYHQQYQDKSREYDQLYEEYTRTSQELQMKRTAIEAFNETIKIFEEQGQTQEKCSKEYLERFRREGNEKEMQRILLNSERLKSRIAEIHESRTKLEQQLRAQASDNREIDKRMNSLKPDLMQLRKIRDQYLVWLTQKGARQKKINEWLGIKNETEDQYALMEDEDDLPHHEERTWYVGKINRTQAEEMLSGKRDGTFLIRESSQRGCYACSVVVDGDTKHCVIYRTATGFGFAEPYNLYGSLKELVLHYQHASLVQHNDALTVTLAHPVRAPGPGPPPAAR
UniProt O00425, whole entry: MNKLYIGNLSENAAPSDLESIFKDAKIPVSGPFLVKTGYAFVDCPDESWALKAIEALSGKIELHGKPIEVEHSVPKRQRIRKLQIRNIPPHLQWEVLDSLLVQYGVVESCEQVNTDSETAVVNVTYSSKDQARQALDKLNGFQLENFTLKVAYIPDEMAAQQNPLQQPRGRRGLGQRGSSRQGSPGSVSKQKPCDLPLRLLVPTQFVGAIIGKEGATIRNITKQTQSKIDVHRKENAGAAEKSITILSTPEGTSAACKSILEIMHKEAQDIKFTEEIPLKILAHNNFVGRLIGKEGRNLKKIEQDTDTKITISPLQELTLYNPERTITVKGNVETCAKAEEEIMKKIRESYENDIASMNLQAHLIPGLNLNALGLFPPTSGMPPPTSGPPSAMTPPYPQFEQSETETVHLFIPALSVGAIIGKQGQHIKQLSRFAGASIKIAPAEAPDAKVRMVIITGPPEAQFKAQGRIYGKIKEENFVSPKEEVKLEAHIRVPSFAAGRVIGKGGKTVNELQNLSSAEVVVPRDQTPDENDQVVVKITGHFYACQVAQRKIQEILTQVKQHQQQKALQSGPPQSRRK
UniProt O60232: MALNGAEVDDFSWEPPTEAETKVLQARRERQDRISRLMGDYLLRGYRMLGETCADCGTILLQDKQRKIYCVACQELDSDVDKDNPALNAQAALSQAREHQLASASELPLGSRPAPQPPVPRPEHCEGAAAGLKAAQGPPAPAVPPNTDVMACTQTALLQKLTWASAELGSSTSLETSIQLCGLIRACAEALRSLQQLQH
UniProt O00560: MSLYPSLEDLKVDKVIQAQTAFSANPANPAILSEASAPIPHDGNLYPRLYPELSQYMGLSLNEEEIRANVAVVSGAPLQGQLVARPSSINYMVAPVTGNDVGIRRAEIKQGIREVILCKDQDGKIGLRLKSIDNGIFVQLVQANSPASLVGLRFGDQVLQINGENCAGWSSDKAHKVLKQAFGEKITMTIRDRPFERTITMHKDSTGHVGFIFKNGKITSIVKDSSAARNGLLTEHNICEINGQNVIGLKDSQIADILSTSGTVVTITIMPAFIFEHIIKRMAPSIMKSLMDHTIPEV
UniProt O00567: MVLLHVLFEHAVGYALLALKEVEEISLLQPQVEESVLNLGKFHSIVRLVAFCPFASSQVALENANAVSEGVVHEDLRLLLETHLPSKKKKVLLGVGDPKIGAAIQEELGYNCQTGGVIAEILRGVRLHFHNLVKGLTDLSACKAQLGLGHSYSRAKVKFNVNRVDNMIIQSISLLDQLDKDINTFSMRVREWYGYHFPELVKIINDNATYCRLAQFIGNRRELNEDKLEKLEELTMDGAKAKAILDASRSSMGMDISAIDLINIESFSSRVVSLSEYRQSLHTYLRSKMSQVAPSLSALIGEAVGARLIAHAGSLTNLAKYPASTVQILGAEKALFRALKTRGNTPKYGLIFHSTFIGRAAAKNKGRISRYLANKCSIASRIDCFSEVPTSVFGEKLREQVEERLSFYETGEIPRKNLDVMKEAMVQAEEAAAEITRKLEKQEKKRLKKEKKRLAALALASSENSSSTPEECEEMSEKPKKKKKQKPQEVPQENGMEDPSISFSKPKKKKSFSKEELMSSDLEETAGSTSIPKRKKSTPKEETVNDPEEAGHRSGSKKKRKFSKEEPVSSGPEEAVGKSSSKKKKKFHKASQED
UniProt O14776: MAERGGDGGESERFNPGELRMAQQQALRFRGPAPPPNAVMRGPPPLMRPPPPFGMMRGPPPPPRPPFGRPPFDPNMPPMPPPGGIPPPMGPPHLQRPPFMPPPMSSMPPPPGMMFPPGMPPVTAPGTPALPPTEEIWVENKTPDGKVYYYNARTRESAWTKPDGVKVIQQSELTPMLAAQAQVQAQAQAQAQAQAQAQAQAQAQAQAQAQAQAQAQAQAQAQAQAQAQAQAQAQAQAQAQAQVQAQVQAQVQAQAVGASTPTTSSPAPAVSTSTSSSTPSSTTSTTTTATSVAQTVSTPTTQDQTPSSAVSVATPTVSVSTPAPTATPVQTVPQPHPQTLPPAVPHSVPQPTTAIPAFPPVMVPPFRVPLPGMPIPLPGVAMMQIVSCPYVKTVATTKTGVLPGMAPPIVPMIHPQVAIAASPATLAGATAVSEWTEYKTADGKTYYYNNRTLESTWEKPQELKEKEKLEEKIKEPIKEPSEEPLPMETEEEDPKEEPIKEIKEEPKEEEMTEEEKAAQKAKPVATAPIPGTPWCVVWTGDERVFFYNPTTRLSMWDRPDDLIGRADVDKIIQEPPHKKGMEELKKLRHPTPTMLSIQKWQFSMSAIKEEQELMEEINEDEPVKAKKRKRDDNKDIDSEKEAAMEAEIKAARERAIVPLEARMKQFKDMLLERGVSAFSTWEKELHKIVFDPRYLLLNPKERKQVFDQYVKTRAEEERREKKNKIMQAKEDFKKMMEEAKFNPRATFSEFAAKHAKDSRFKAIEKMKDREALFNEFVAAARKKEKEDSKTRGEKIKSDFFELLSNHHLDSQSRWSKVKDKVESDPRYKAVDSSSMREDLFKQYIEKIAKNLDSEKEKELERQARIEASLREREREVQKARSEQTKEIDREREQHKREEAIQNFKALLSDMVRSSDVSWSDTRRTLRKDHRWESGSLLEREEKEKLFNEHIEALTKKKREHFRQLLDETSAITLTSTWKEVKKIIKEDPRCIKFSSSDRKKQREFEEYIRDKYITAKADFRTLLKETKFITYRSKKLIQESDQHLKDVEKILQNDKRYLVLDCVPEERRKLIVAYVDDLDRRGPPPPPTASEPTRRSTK
UniProt O00635: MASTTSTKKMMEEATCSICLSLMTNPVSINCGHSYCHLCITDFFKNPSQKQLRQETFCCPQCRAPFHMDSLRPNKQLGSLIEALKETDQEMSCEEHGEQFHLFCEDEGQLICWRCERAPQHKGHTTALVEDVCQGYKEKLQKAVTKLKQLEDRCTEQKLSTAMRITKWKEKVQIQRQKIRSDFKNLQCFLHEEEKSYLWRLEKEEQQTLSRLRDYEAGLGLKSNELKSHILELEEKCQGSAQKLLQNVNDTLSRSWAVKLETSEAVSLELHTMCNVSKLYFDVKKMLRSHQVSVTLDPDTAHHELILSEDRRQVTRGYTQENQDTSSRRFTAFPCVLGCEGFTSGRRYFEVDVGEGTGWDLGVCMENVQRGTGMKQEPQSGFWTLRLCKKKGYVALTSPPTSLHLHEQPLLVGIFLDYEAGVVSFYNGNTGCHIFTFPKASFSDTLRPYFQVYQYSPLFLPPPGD

± gives the standard deviation of the averaged measurements. Only a part is listed here, and it is no random draw. Most entries show no effect beyond the scatter of the controls.

On to PIK3R2 (UniProt O00459), for which the NP40-soluble protein abundance by setting is: (concentration: 0.1mM) 1.1 ± 0.083; (concentration: 0.5mM) 1.02 ± 0.12.
As to UniProt O14662-2|O14662-4|O14662-5, the NP40-soluble protein abundance (concentration: 0.1mM) turned out to be 0.942 ± 0.076; the NP40-soluble protein abundance (concentration: 0.5mM) came out at 0.928 ± 0.066; the NP40-soluble protein abundance (concentration: 1mM) amounted to 0.98 ± 0.066; the NP40-soluble protein abundance (concentration: 2mM) stood at 0.94 ± 0.042; the NP40-soluble protein abundance (concentration: 4mM) is 0.993 ± 0.044; the NP40-soluble protein abundance (concentration: 6mM) came out at 0.974 ± 0.037. In addition, the NP40-soluble protein abundance (concentration: 8mM) stood at 0.983 ± 0.034 and the NP40-soluble protein abundance (concentration: 10mM) was found to be 0.921 ± 0.068.
On to IGF2BP3 (UniProt O00425), for which the NP40-soluble protein abundance by setting is: (concentration: 0.1mM) 1 ± 0.051; (concentration: 0.5mM) 1.03 ± 0.054.
For UniProt O60232, in that order: 0.919 ± 0.018 and 0.896 ± 0.047.
For UniProt O00560 and related entries, the NP40-soluble protein abundance runs as follows: (concentration: 0.1mM) 0.989 ± 0.03; (concentration: 0.5mM) 0.978 ± 0.022; (concentration: 1mM) 0.95 ± 0.073; (concentration: 2mM) 0.946 ± 0.041; (concentration: 4mM) 0.937 ± 0.04; (concentration: 6mM) 0.896 ± 0.077. Besides, the NP40-soluble protein abundance runs as follows: (concentration: 8mM) 0.9459 ± 0.0062; (concentration: 10mM) 0.957 ± 0.031.
Take UniProt O00567: the NP40-soluble protein abundance was 1.02 ± 0.03 (concentration: 0.1mM); 1.02 ± 0.031 (concentration: 0.5mM); 1.04 ± 0.038 (concentration: 1mM); 1.1 ± 0.033 (concentration: 2mM); 1.24 ± 0.02 (concentration: 4mM); 1.38 ± 0.06 (concentration: 6mM). The NP40-soluble protein abundance was 1.68 ± 0.064 (concentration: 8mM) and 2.11 ± 0.2 (concentration: 10mM).
On to UniProt O14776 and related entries, for which the NP40-soluble protein abundance worked out at 0.989 ± 0.029 (concentration: 0.1mM); 1.01 ± 0.057 (concentration: 0.5mM); 0.972 ± 0.011 (concentration: 1mM); 0.9735 ± 0.0036 (concentration: 2mM); 0.959 ± 0.024 (concentration: 4mM); 1.03 ± 0.021 (concentration: 6mM). In addition, the NP40-soluble protein abundance turned out to be 1.01 ± 0.024 (concentration: 8mM) and 1.02 ± 0.013 (concentration: 10mM).
For TRIM38 (UniProt O00635), the NP40-soluble protein abundance stood at 1.06 ± 0.039 (concentration: 0.1mM); 1.04 ± 0.022 (concentration: 0.5mM); 0.949 ± 0.053 (concentration: 1mM); 1 ± 0.018 (concentration: 2mM); 0.988 ± 0.041 (concentration: 4mM); 0.955 ± 0.046 (concentration: 6mM). Further, the NP40-soluble protein abundance reads like this: (concentration: 8mM) 0.986 ± 0.034; (concentration: 10mM) 0.993 ± 0.045.
